Results taken from US11976137B2 (Cambridge Enterprise Limited, priority 2018, dated 2024).
Where a sequence shows no end group, the ends are not given. HELM strings list residues between dots; [ac] is acetyl, [am] amide, other brackets name non-standard units.

Assay: peptide made by a vendor (Fmoc solid-phase peptide synthesis)
Details: whole synthesis, LCMS and mass spectrometry

| Substance | final purity (method not given) | also measured |
| --- | --- | --- |
| PEPTIDE1{C.R.P.R.[Nle].C.K.H.[Abu].R.[Aib].R.[Nle].[Tfpa]}$$$$V2.0 | 96.08% | – |
| Ac-ARPR-Nle-Abu-K(PAL)-H-Abu-R-Aib-R-Nle-(3,4,5-trifluorophenylalanine) | 96.91% | – |
| PEPTIDE1{Q.R.P.R.[Nle].C.K.H.C.R.[Aib].R.[Nle].[Tfpa]}$$$$V2.0 | – | final LC-MS purity: 95.95% |
| cyclo(1-6)CRPRLC-KH-cyclo(9-14)CRPRLC | – | final LC-MS purity (run 1): 95.01%; final LC-MS purity (run 2): 97.15% |
| ARPR-Nle-Abu-KH-Abu-R-Aib-R-Nle-Alanine | 97.78% | – |
| CRPR-Nle-CHKCR-Aib-R-Nle-(3,4,5-trifluoro-)F | 95.07% | – |
| CRPRLCHKCRPRLC | – | final LC-MS purity: 98.99% |
| ARPR-Nle-Abu-KH-Abu-R-Aib-R-Nle-Phenylalanine | 97.88% | – |
| ARPR-Nle-Abu-KH-Abu-R-Aib-R-Nle-Phenylglycine | 99.09% | – |
| PEPTIDE1{[Myr].A.R.P.R.[Nle].[Abu].K.H.[Abu].R.[Aib].R.[Nle].[Tfpa]}$$$$V2.0 | – | final purity (method not given) (run 1): 95.19%; final purity (method not given) (run 2): 96.47% |
| PEPTIDE1{A.R.P.R.[Nle].[Abu].K.H.[Abu].R.[Aib].R.[Nle].[Tfpa]}$$$$V2.0 | 97.38% | – |
| ARPR-Nle-Abu-KH-Abu-R-Aib-R-Nle-(3-(1-naphthyl)alanine) | 98.83% | – |
| CRPR-Nle-CKHCR-Aib-R-Nle-(3,4,5-trifuoro-)F | – | final LC-MS purity: 97.69% |
| CRPRLCKHCRPRLC | – | final LC-MS purity: 95.35% |
| PEPTIDE1{C.R.P.R.[Nle].[Abu].K.H.C.R.[Aib].R.[Nle].[Tfpa]}$$$$V2.0 | 95.06% | – |
| PEPTIDE1{A.R.P.R.[Nle].C.K.H.[Abu].R.[Aib].R.[Nle].[Tfpa]}$$$$V2.0 | 95.46% | – |

| Substance | final purity (method not given) | also measured |
| --- | --- | --- |
| ARPR-Nle-Abu-KH-Abu-R-Aib-R-Nle-(4-methoxyphenylalanine) | 98.56% | – |
| ARPR-Nle-Abu-KH-Abu-R-Aib-R-Nle-(2-Aminoindane) | 97.67% | – |
| Myristoyl-CRPR-Nle-CKHCR-Aib-R-Nle-(3,4,5-trifluoro-)F | 97.59% | – |
| ARPR-Nle-Abu-KH-Abu-R-Aib-R-Nle-(4-benzoylphenylalanine) | 98.53% | – |
| ARPR-Nle-Abu-KH-Abu-R-Aib-R-Nle-(Alpha-Methyl-L-phenylalanine) | 95.03% | – |
| ARPR-Nle-Abu-KH-Abu-R-Aib-R-Nle-(4-Aminopiperidine-4-carboxylic acid) | 98.75% | – |
| ARPR-Nle-Abu-KH-Abu-R-Aib-R-Nle-(4-chlorophenylalanine) | 98.74% | – |
| ARPR-Nle-Abu-KH-Abu-R-Aib-R-Nle-(3-(2-naphthyl)alanine) | 97.74% | – |
| PEPTIDE1{[Glp].R.P.R.[Nle].[Abu].K.H.[Abu].R.[Aib].R.[Nle].[Tfpa]}$$$$V2.0 | 97.13% | – |
| PEPTIDE1{[Myr].A.R.P.R.[Nle].[Abu].H.K.[Abu].R.[Aib].R.[Nle].[Tfpa]}$$$$V2.0 | 95.12% | – |
| Ac-ARPR-Nle-Abu-K(GluPAL)-H-Abu-R-Aib-R-Nle-(3,4,5-trifluorophenylalanine) | 95.76% | – |
| PEPTIDE1{[ac].A.R.P.R.[Nle].C.K.H.[Abu].R.[Aib].R.[Nle].[Tfpa]}$$$$V2.0 | 95.08% | – |
| ARPR-Nle-Abu-KH-Abu-R-Aib-R-Nle | 98.42% | – |
| ARPR-Nle-Abu-KH-Abu-R-Aib-R-Nle-(O-Benzyltyrosine) | 98.33% | – |
| PEPTIDE1{[Glp].R.P.R.[Nle].C.K.H.C.R.[Aib].R.[Nle].[Tfpa]}$$$$V2.0 | 96% | – |
